Test results as given in patent US20120028913A1.
Results are given in words; binding and its absence hold for the method and conditions named. Some results given as binding are weak or reduced against the parent protein; the word gives no strength.

Chains of the proteins cited; added tags and fusions are not shown. Residues count along the entry.
UniProt P48061, residues 22-89: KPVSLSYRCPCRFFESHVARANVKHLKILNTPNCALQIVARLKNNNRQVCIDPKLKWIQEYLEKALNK
UniProt P51671, residues 24-97: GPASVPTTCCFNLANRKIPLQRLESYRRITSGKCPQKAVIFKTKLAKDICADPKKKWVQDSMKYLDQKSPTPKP
UniProt P10145, residues 28-99: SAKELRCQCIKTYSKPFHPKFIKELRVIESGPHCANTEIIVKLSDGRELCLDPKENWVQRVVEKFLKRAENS
UniProt P13500, residues 24-99: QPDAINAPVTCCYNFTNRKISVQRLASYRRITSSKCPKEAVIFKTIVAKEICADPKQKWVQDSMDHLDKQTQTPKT

Tests used:
[1] = target: Human SDF-1α (human) (UniProt P48061); assay: Bound chemokines (at least); screen vs control proteins
[2] = target: human Eotaxin (human) (UniProt P51671); assay: as above
[3] = target: human IL-8, (72 amino acids) (human) (UniProt P10145); assay: as above
[4] = target: Human MCP-1 (MCAF) (human) (UniProt P13500); assay: as above
[5] = target: T1, human MIG (human) (UniProt Q07325); assay: as above
T1 sequence (looked up): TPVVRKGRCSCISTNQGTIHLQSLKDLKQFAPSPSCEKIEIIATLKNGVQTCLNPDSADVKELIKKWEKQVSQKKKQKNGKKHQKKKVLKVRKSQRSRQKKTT

[6] = target: Human MCP-1 (MCAF) (human) (UniProt P13500); assay: FIG. 1 legend
[7] = target: T1, human MIG (human); assay: ELISA on chemokine-coated plates (FIG. 3)
[8] = target: T1, human MIG (human); assay: earlier ELISA, told with the flow chamber assay
[9] = target: Human MCP-1 (MCAF) (human) (UniProt P13500); assay: peptide-containing carriers, binding vs control proteins (FIG. 1)
[10] = target: Human MCP-1 (MCAF) (human) (UniProt P13500); assay: ELISA on chemokine-coated plates, fold over control proteins (FIG. 3)
[11] = target: Human SDF-1α (human) (UniProt P48061); assay: as above
[12] = target: human Eotaxin (human) (UniProt P51671); assay: as above
[13] = target: human IL-8, (72 amino acids) (human) (UniProt P10145); assay: as above
[14] = target: T1, human MIG (human); assay: as above
[15] = target: Human SDF-1α (human) (UniProt P48061); assay: FIG. 1 legend
[16] = target: Human SDF-1α (human) (UniProt P48061); assay: peptide-containing carriers, binding vs control proteins (FIG. 1)

Measured: binding

SAGHIHEAHRPLGGGSKG (biotin on Lys of C-terminal GGGSK-biotin-G) [BKT-P39]
binds: [1] | [2] | [3]

SFWHHHSPRSPL [BKT-P31]
binds: [2]

HHFHLPKLRPPVGGGSKG (biotin on Lys of C-terminal GGGSK-biotin-G) [BKT-P45]
binds: [4] | [3] | [5]

SIFAHQTPTHKNGGGSKG (biotin on Lys of C-terminal GGGSK-biotin-G) [BKT-P3]
not listed: [1] | [2] | [15] | [16]
binds: all other assays above

SIPSHSIHSAKAGGGSKG (biotin on Lys of C-terminal GGGSK-biotin-G) [BKT-P2]
binds: [4] | [2] | [3]

SQTLPYSNAPSPGGGSKG (biotin on Lys of C-terminal GGGSK-biotin-G) [BKT-P1]
binds: [15] | [16]
